{"source": "patent US20250034529A1", "about": "“Methods and Uses of Differentiated Cells” (Miromatrix Medical Inc., priority 2023, published 2025)", "key": {"[1]": {"test_system": "glomerular outgrowth cells", "test": "Immunofluorescence morphology of glomerular outgrowth cells treated with Panobinostat media", "type": "cell-based", "conditions": "2 days, vs DMEM"}, "[2]": {"test_system": "glomerular outgrowth cells", "test": "Podocyte gene expression following Panobinostat differentiation", "type": "cell-based"}, "[3]": {"conditions": "6 days of treatment with 50 nM, levels relative to RM control media, two cell lots"}}, "note": "For at least one compound, name, drawing or mass did not settle the structure.", "data": [{"compound": "Cc1[nH]c2ccccc2c1CCNCc1ccc(/C=C/C(=O)NO)cc1", "note": "[Panobinostat]", "values": [{"measurement": "changes in morphology (process formation; vimentin, F-actin)", "setting": "[1]; 50 nM Panobinostat", "result": "widespread"}, {"measurement": "changes in morphology (process formation; vimentin, F-actin)", "setting": "[1]; 200 nM Panobinostat", "result": "widespread"}, {"measurement": "podocyte marker gene expression", "setting": "[2]; 2 days of treatment with 200 nM, relative to control media (RM)", "result": "upregulated"}, {"measurement": "podocalyxin gene expression compared with PSM", "setting": "[2]; [3]", "result": "higher"}, {"measurement": "synaptopodin gene expression compared with PSM", "setting": "[2]; [3]", "result": "higher"}]}]}
